PubChem BioAssay AID743121 | NCATS, 2013
The whole screen tested about 26,000 reagents; shown is an unselected part. Of all reagents, 167 (0.63%) are marked active. 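Calls are per gene from RSA p-values that are not deposited; an individual active-marked siRNA can sensitise only weakly.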 Entries without a mark were called inactive. The numbers tell different reagents against one gene apart. Not all columns of the deposit are shown. Reagent sequences are not shown.

Aim: 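Partners whose loss is lethal together with topoisomerase I blockade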 (primary screen)
Cell system: MDA-MB-231 cells, a human breast cancer line
Knock-down reagent: single siRNA against human genes, 20 nM siRNA (0.8 pmol per well)
Time to read-out: 120 h (drug added 48 h after transfection, read 72 h later)
Challenge: camptothecin 20 nM (about EC30) for 72 h; vehicle 0.1% DMSO in parallel plates
Measurement: 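Cell viability by ATP luminescence (CellTiter-Glo) as % of non-targeting siRNA wells, and the log2 ratio of viability without drug over viability with camptothecin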
Reading the numbers: log2 vehicle/camptothecin viability: higher = stronger sensitisation to camptothecin; viability with camptothecin: higher = more viable cells
Call rule: 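Active genes have an RSA gene-level p-value below 0.001, computed from the ratios of their separate siRNAs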

Target gene | reagent | log2 vehicle/camptothecin viability | viability with camptothecin (% of control)
PDGFRB (platelet derived growth factor receptor beta) | 1 | -0.127 | 93.1
PDGFRB (platelet derived growth factor receptor beta) | 2 | 0.063 | 60.2
PDGFRB (platelet derived growth factor receptor beta) | 3 | -0.494 | 43.6
PDGFRB (platelet derived growth factor receptor beta) | 4 | -0.244 | 109
PAQR7 (progestin and adipoQ receptor family member 7) | 1 | -0.294 | 97.2
PAQR7 (progestin and adipoQ receptor family member 7) | 2 | -0.0352 | 94.1
PAQR7 (progestin and adipoQ receptor family member 7) | 3 | -0.2 | 89.7
PAQR7 (progestin and adipoQ receptor family member 7) | 4 | 0.0266 | 97.5
TFAP2C (transcription factor AP-2 gamma) | 1 | 0.0499 | 79.6
TFAP2C (transcription factor AP-2 gamma) | 2 | 0.0538 | 84
TFAP2C (transcription factor AP-2 gamma) | 3 | -0.371 | 120

Continued, starting with the last 2 of the part before.
Target gene | reagent | log2 vehicle/camptothecin viability | viability with camptothecin (% of control)
TFAP2C (transcription factor AP-2 gamma) | 2 | 0.0538 | 84
TFAP2C (transcription factor AP-2 gamma) | 3 | -0.371 | 120
IL1A (interleukin 1 alpha) | 1 | -0.389 | 32
IL1A (interleukin 1 alpha) | 2 | -0.502 | 130
IL1A (interleukin 1 alpha) | 3 | -0.0882 | 49.1
SIM1 (SIM bHLH transcription factor 1) | 1 | -0.22 | 118
SIM1 (SIM bHLH transcription factor 1) | 2 | -0.349 | 94.5
SIM1 (SIM bHLH transcription factor 1) | 3 | -0.166 | 120
CACNG2 (calcium voltage-gated channel auxiliary subunit gamma 2) | 1 | -0.411 | 122
CACNG2 (calcium voltage-gated channel auxiliary subunit gamma 2) | 2 | 0.122 | 82.3
CACNG2 (calcium voltage-gated channel auxiliary subunit gamma 2) | 3 | -0.143 | 94.9
CACNG2 (calcium voltage-gated channel auxiliary subunit gamma 2) | 4 | 0.0998 | 98.1
FTH1 (ferritin heavy chain 1) | 1 | -0.35 | 89.1
FTH1 (ferritin heavy chain 1) | 2 | 0.0359 | 137
FTH1 (ferritin heavy chain 1) | 3 | -0.156 | 93
FTH1 (ferritin heavy chain 1) | 4 | -0.118 | 82.1
AGO4 (argonaute RISC component 4) | 1 | 1.08 | 31.8
AGO4 (argonaute RISC component 4) | 2 | 0.0818 | 82.2
AGO4 (argonaute RISC component 4) | 3 | -0.186 | 118
